Experiment [1] addresses T1, human wild-type R-RAS2 tagged at the N-terminus with a hemagglutinin (Hag) epitope, from the Rosa26-RRAS2fl/fl knock-in (human) (UniProt P62070).
T1 sequence: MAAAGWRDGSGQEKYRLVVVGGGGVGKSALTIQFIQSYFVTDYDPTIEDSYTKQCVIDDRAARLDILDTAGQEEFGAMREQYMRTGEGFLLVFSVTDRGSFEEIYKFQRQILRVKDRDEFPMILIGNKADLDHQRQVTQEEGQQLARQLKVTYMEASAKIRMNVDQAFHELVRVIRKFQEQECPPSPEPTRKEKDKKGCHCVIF
Description: affinity purification with mass spectrometry; cells of a freshly isolated Rosa26-RRAS2fl/fl x Wap-Cre breast tumor surface-biotinylated, lysed in 0.5% Brij96; co-IP with anti-Hag (12CA5) or isotype control, then Streptavidin Sepharose; in-gel trypsin digest, Orbitrap.

Amino acid sequences for entries named in this document (tags omitted). Residues count along the entry.
UniProt Q02248: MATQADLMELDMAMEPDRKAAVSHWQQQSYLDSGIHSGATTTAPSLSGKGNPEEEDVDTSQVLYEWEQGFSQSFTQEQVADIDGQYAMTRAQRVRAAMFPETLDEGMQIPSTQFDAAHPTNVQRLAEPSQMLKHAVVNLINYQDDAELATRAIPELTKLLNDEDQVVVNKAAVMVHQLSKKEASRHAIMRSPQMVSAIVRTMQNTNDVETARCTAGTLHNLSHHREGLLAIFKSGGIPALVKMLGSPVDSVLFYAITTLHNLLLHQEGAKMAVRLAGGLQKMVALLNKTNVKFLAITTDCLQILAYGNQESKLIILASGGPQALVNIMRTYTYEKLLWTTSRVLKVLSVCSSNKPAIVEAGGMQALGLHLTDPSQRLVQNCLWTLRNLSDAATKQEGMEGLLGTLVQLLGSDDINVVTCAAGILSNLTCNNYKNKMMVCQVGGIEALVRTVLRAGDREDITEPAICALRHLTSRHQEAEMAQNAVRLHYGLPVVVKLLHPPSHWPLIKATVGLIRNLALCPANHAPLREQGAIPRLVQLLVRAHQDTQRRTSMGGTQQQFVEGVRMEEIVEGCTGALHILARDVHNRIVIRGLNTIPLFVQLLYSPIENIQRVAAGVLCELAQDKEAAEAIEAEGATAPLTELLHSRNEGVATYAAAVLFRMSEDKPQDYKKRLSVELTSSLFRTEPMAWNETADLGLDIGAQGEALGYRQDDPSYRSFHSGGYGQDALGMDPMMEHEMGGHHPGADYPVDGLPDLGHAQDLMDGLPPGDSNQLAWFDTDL
UniProt P09055, residues 21-798: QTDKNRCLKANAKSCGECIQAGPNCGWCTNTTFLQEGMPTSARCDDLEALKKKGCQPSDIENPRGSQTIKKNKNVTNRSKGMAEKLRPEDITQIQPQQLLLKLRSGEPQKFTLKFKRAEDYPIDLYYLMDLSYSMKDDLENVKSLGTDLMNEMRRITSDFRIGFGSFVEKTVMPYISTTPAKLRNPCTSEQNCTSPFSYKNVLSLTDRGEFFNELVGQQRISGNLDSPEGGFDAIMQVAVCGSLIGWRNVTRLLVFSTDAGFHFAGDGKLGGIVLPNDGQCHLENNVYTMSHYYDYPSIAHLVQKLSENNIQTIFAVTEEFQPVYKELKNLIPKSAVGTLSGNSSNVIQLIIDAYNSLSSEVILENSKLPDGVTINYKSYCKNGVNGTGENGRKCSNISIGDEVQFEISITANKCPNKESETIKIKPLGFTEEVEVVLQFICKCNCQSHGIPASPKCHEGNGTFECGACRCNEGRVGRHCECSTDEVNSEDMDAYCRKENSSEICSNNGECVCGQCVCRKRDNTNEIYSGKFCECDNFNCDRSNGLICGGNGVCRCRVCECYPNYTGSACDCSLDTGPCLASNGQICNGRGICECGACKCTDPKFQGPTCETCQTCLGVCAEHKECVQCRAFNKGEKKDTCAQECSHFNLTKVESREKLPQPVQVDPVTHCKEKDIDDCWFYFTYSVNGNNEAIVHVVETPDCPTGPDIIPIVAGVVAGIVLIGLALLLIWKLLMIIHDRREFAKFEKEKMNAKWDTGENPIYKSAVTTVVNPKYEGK
UniProt P26231: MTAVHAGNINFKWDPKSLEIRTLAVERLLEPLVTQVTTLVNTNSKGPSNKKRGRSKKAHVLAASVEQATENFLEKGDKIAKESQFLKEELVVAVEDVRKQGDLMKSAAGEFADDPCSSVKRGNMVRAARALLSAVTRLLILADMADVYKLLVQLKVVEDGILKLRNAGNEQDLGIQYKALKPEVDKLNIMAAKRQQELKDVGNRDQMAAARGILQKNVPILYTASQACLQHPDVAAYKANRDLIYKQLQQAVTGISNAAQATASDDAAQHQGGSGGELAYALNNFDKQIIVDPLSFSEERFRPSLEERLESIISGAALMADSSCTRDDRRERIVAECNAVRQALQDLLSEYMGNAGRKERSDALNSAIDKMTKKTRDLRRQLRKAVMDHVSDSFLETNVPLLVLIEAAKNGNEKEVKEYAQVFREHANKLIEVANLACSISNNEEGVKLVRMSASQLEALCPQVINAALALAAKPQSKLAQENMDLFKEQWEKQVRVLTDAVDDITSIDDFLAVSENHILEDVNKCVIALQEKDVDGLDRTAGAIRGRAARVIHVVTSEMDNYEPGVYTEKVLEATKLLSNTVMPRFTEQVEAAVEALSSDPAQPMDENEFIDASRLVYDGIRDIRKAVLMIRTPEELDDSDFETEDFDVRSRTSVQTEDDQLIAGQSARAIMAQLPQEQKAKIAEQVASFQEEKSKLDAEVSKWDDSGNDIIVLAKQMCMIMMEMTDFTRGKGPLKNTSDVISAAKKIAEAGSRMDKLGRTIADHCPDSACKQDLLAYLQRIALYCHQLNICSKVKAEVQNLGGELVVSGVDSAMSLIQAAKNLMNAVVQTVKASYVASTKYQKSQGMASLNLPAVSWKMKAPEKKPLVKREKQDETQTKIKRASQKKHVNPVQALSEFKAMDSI
UniProt P10852: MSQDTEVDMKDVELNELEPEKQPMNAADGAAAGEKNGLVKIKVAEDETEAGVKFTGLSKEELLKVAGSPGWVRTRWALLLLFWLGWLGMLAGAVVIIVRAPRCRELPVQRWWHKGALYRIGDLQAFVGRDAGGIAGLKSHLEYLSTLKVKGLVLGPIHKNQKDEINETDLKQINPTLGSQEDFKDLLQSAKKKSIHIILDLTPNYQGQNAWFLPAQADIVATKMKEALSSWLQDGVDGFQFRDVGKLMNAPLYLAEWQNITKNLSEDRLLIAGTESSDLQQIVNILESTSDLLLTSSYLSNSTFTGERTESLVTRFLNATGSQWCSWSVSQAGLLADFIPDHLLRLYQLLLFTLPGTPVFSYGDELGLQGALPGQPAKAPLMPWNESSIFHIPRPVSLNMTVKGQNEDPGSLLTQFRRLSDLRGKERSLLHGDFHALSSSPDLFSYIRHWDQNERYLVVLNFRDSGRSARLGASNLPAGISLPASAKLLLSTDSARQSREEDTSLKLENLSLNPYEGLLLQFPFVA
UniProt Q9Z127: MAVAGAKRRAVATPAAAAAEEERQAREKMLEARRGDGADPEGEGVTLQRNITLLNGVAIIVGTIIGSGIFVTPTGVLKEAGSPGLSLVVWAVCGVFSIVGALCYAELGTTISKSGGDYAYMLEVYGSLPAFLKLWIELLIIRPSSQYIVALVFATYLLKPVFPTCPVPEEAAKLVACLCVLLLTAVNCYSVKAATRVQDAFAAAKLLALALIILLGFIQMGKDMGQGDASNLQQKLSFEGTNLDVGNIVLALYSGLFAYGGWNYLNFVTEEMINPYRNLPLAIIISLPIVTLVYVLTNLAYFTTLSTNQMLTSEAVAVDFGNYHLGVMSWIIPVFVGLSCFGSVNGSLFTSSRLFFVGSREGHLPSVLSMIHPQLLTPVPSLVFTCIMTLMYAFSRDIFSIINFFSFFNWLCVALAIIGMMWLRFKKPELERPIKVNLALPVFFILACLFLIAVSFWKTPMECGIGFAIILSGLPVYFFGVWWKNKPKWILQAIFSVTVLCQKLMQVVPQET

Experiment [2] concerns the target T1, human wild-type R-RAS2 tagged at the N-terminus with a hemagglutinin (Hag) epitope, from the Rosa26-RRAS2fl/fl knock-in (human). The experiment is described as above. This is another data set of the same source.

Read-outs that look alike come from different tables or passages of the source. These are yes or no findings as the source states them, for the method shown. Binding seen in cells or lysates may run through a third protein. A yes stands for co-enrichment or nearness to the bait. Other partners may have been found. Sequences can lack the tags named with a protein.

On to “β-catenin (Ctnnb1), mouse (from UniProt Q02248 1-781)”, for which the binding entry in experiment [1] is on record as “binds”.

“integrin-β1 (itgb1), mouse (from UniProt P09055 21-798) (receptor)”: the binding entry in experiment [1] is reported as “binds”. The same measure, in the same setting: in the case of “α-catenin (Ctnna1), mouse (from UniProt P26231 1-906)” it was “binds”.

On to “CD98 heavy chain (Slc3a2), mouse (from UniProt P10852 1-526)”, for which the binding entry in experiment [1] was “binds”. Take “LAT1 (Slc7a5), mouse (from UniProt Q9Z127 1-512)”: the binding result in experiment [1] is “binds”.

B1: Ptk7, mouse (receptor, UniProt Q8BKG3 23-1062)
chain: AIVFIKEPSSQDALQGRRALLRCEVEAPDPVHVYWLLNGVPVQDTERRFAQGSSLSFAAVDRLQDSGAFQCVARDNVTGEEVRSTNASFNIKWIEAGPVVLKHPASEAEIQPQTQVTLRCHIDGHPRPTYQWFRDGTPLSDDQSTHTVSSRERNLTLRPASPEHSGLYSCCAHNAFGQACSSQNFTLSVADESFARVVLAPQDVVVARNEEAMFHCQFSAQPPPSLQWVFEDETPITNRSRPPHLRRAVVFANGSLLLTQVRPRNAGVYRCIGQGQRGPPIVLEATLHLAEIEDMLPFEPRVFIAGDEERVTCPAPQGLPTPSVWWEHAGVPLPAHGRVHQKGLELVFVTIAESDTGVYTCHASNLAGQRRQDVNITVATVPTWLRKPQDSQLEEGKPGYLHCLTQATPKPTVIWYRNQMLISEDSRFEVSKNGTLRINSVEVYDGTLYRCVSSTPAGSIEAQARVQVLEKLKFTPPPQPQQCMEFDKEATVPCSATGREKPTVKWVRADGSSLPEWVTDNAGTLHFARVTRDDAGNYTCIASNEPQGQIRAHVQLTVAVFITFKVEPERTTVYQGHTALLRCEAQGDPKPLIQWKGKDRILDPTKLGPRMHIFQNGSLVIHDVAPEDSGSYTCIAGNSCNIRHTEAPLLVVDKPVMEDSEGPGSPPPYKMIQTIGLSVGAAVAYIIAVLGLMFYCKKRCKAKRLQKQPEGEEPEMECLNGGPLQNGQPSAEIQEEVALTSLGSGPPATNKRHSAGDRMHFPRASLQPITTLGKSEFGEVFLAKAQGVEEGATETLVLVKSLQSRDEQQQLDFRREVEMFGKLNHANVVRLLGLCREAEPHYMVLEYVDLGDLKQFLRISKNKDEKLKSQPLSTKQKVALCSQVALGMEHLSNNRFVHKDLAARNCLISAQRQVKVSALGLSKDVYNSEYYHFRQAWVPLRWMSPEAVLEGDFSTKSDVWAFGVLMWEVFTHGEMPHGGQADDEVLADLQAGKARLPQPEGCPSKLYRLMQRCWAPNPKDRPSFSEIASTLGDSPADSKQ
B1: the binding result in experiment [2] is “binds”.

B2: GLUT1 (Slc2a1), mouse (protein, UniProt P17809 1-492)
chain: MDPSSKKVTGRLMLAVGGAVLGSLQFGYNTGVINAPQKVIEEFYNQTWNHRYGEPIPSTTLTTLWSLSVAIFSVGGMIGSFSVGLFVNRFGRRNSMLMMNLLAFVAAVLMGFSKLGKSFEMLILGRFIIGVYCGLTTGFVPMYVGEVSPTALRGALGTLHQLGIVVGILIAQVFGLDSIMGNADLWPLLLSVIFIPALLQCILLPFCPESPRFLLINRNEENRAKSVLKKLRGTADVTRDLQEMKEEGRQMMREKKVTILELFRSPAYRQPILIAVVLQLSQQLSGINAVFYYSTSIFEKAGVQQPVYATIGSGIVNTAFTVVSLFVVERAGRRTLHLIGLAGMAGCAVLMTIALALLERLPWMSYLSIVAIFGFVAFFEVGPGPIPWFIVAELFSQGPRPAAIAVAGFSNWTSNFIVGMCFQYVEQLCGPYVFIIFTVLLVLFFIFTYFKVPETKGRTFDEIASGFRQGGASQSDKTPEELFHPLGADSQV
On to B2, for which, in experiment [2], the binding entry is “binds”.

B3: Epcam, mouse (protein, UniProt Q99JW5 24-315)
chain: QRDCVCDNYKLATSCSLNEYGECQCTSYGTQNTVICSKLASKCLAMKAEMTHSKSGRRIKPEGAIQNNDGLYDPDCDEQGLFKAKQCNGTATCWCVNTAGVRRTDKDTEITCSERVRTYWIIIELKHKERESPYDHQSLQTALQEAFTSRYKLNQKFIKNIMYENNVITIDLMQNSSQKTQDDVDIADVAYYFEKDVKGESLFHSSKSMDLRVNGEPLDLDPGQTLIYYVDEKAPEFSMQGLTAGIIAVIVVVSLAVIAGIVVLVISTRKKSAKYEKAEIKEMGEIHRELNA
With B3, in experiment [2], the binding entry is “binds”.
